Results are given in words; binding and its absence hold for the method and conditions named.
Target: T1, soluble full-length recombinant ADAMTS13 (UniProt Q76LX8)
T1 sequence: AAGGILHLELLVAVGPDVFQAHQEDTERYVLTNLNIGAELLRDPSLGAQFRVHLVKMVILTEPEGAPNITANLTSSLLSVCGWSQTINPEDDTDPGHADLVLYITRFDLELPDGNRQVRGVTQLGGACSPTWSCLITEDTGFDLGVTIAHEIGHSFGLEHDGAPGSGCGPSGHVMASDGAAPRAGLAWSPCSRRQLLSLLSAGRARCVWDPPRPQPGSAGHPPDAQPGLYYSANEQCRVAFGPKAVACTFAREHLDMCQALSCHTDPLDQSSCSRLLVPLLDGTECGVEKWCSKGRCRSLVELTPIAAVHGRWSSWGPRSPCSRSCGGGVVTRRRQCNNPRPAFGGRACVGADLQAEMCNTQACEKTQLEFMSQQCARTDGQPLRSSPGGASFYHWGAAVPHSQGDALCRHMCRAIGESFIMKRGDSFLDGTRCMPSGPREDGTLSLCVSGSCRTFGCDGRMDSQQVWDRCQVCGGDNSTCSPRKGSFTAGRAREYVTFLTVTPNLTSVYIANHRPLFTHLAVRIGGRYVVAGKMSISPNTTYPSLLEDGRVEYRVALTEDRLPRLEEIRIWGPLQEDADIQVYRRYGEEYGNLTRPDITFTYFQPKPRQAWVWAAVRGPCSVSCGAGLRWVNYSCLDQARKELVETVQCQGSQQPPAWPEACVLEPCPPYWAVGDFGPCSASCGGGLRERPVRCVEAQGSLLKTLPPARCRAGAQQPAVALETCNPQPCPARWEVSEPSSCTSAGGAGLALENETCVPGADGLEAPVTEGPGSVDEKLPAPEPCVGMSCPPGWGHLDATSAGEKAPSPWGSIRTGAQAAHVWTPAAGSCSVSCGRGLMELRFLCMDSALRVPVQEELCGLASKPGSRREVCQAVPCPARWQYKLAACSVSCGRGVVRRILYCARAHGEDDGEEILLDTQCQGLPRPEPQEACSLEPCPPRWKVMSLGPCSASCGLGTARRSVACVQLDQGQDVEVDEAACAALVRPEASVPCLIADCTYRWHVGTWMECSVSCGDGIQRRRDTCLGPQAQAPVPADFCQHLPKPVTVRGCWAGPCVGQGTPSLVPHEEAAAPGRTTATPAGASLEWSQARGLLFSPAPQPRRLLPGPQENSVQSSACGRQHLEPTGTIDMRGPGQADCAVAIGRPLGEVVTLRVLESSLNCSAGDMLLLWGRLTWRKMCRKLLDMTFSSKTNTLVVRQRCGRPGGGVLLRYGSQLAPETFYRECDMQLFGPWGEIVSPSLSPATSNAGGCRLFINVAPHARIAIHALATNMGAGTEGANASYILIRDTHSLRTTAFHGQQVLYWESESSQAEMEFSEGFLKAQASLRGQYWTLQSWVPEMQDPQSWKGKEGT
Test: SPR; Biacore T200; ADAMTS13, MDTCS (or fibrinogen) immobilised on CM5 by amine coupling (500-1000 RU); analytes 0-7 µM (or 0-3.5 µM) with 5 mM AEBSF and 10 µM VFKck; 20 mM HEPES-NaOH, 150 mM NaCl, pH 7.4, 0.01% Tween-20, 10 mM CaCl2, 10 µM ZnCl2; 20 µl/min, 25 °C; equilibrium responses fitted to a one-site binding model; both purified

Chains of the proteins cited; added tags and fusions are not shown. Residues count along the entry.
UniProt O76061, residues 25-302: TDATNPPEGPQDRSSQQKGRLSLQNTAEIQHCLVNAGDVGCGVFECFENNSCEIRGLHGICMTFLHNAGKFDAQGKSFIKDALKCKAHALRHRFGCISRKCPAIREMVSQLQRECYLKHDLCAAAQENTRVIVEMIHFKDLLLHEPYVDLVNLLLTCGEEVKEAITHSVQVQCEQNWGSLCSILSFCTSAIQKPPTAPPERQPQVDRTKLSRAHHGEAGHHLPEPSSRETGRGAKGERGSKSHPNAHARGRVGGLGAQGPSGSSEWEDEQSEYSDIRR

- binding: no binding (tested: 1.3 µM)
Substance: Stanniocalcin-2 (recombinant) (from UniProt O76061 25-302)

From PMC11032339
